The assay deals with T1, IL receptor 20 subunit β (IL-20RB) (not stated (human or mouse cDNA cloned)) (UniProt Q6UXL0).
T1 sequence: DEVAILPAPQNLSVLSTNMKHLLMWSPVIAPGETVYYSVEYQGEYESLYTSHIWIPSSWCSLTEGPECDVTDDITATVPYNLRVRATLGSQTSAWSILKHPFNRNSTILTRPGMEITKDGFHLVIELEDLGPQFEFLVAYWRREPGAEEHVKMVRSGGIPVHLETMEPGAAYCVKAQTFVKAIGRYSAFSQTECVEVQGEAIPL
The experiment in a line: co-IP; cell lysate supernatant incubated with control IgG or primary antibody overnight in IP buffer (150 mM NaCl, 20 mM HEPES pH 7.4, 1% Triton X-100), protein A/G beads 2 h at 4°C, Western blotting; with the antibody LTMA1G11 as blocker; the set-up of Supplemental Figure 9C itself is not shown.

Our source for the binding values is publication PMC9566910.

These are yes or no findings as the source states them, for the method shown. In cells and extracts the contact can be indirect. Some entries that bind do so weakly or less than the wild type.

B1: IL-19 (ligand, UniProt Q9UHD0 25-177)
chain: LRRCLISTDMHHIEESFQEIKRAIQAKDTFPNVTILSTLETLQIIKPLDVCCVTKNLLAFYVDRVFKDHQEPNPKILRKISSIANSFLYMQKTLRQCQEQRQCHCRQEATNATRVIHDNYDQLEVHAAAIKSLGELDVFLAWINKNHEVMFSA
As for B1, the binding entry was “binds”.
